Earlier results on one compound are cited in publication PMC8673317 (Journal of medicinal chemistry, 2021).

One may read the LD50 as the dose expected to kill half of the subjects tested.

The subject of the data set is CD1 mice. The following applies: sc; cited from earlier work.

For the compound `CN1CC[C@]23c4c5ccc(O)c4O[C@H]2[C@@H](O)C=C[C@H]3[C@H]1C5` [morphine], the LD50 was 750 mg/kg.
